Reference: PubChem BioAssay AID743121 (NCATS, 2013)
The deposit covers about 26,000 reagents; this is a random part of them. 167 of all reagents (0.63%) were called active. 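Calls are per gene from RSA p-values that are not deposited; an individual active-marked siRNA can sensitise only weakly.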 Unmarked entries are inactive. Reagents against one gene are numbered here. Further read-outs or replicates are left out here.

Purpose: 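Genes whose silencing strengthens cell killing by camptothecin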 (primary screen)
System: MDA-MB-231 cells, a human breast cancer line
Reagents: single siRNA against human genes, 20 nM siRNA (0.8 pmol per well)
Timing: 120 h (drug added 48 h after transfection, read 72 h later)
Challenge: camptothecin 20 nM (about EC30) for 72 h; vehicle 0.1% DMSO in parallel plates
Measurement: 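Cell viability by ATP luminescence (CellTiter-Glo) as % of non-targeting siRNA wells, and the log2 ratio of viability without drug over viability with camptothecin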
Direction: log2 vehicle/camptothecin viability: higher = stronger sensitisation to camptothecin
Rule for the call: 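Each gene scored by redundant siRNA activity (RSA) over its individual siRNA ratios; a gene is called active at p < 0.001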

no.	gene	siRNA no.	log2 vehicle/camptothecin viability
1	MFAP4 (GeneID 4239)	1	-0.173
2	MFAP4 (GeneID 4239)	2	-0.102
3	MFAP4 (GeneID 4239)	3	-0.0624
4	MFAP4 (GeneID 4239)	4	-0.384
5	GHSR (GeneID 2693)	1	0.269
6	GHSR (GeneID 2693)	2	0.122
7	GHSR (GeneID 2693)	3	0.347
8	GHSR (GeneID 2693)	4	-0.46
9	MAP3K9 (GeneID 4293)	1	-0.126
10	MAP3K9 (GeneID 4293)	2	-0.0452
11	MAP3K9 (GeneID 4293)	3	-0.423
12	MAP3K9 (GeneID 4293)	4	-0.465
13	ALPL (GeneID 249)	1	-0.478
14	ALPL (GeneID 249)	2	-0.384
15	ALPL (GeneID 249)	3	0.69
16	ALPL (GeneID 249)	4	-0.528
17	TMEM86B (GeneID 255043)	1	-0.349
18	TMEM86B (GeneID 255043)	2	-0.175
19	TMEM86B (GeneID 255043)	3	-0.106
20	TMEM86B (GeneID 255043)	4	-0.103
21	IFNA21 (GeneID 3452)	1	-0.000639
22	IFNA21 (GeneID 3452)	2	-0.292
23	IFNA21 (GeneID 3452)	3	0.257
24	IFNA21 (GeneID 3452)	4	-0.333

Next part; the last 4 above are carried over.
no.	gene	siRNA no.	log2 vehicle/camptothecin viability
21	IFNA21 (GeneID 3452)	1	-0.000639
22	IFNA21 (GeneID 3452)	2	-0.292
23	IFNA21 (GeneID 3452)	3	0.257
24	IFNA21 (GeneID 3452)	4	-0.333
25	FBH1 (GeneID 84893)	1	-0.395
26	FBH1 (GeneID 84893)	2	-0.298
27	FBH1 (GeneID 84893)	3	-0.561
28	FBH1 (GeneID 84893)	4	0.0818
29	FASN (GeneID 2194)	1	0.393
30	FASN (GeneID 2194)	2	-0.153
31	FASN (GeneID 2194)	3	0.311
32	FASN (GeneID 2194)	4	0.159
33	RNF150 (GeneID 57484)	1	0.0191
34	RNF150 (GeneID 57484)	2	-0.0436
35	RNF150 (GeneID 57484)	3	-0.251
36	RNF150 (GeneID 57484)	4	-0.272
37	TOB1 (GeneID 10140)	1	-0.161
38	TOB1 (GeneID 10140)	2	-0.132
39	TOB1 (GeneID 10140)	3	-0.173
40	TOB1 (GeneID 10140)	4	-0.0592
41	PRPF19 (GeneID 27339)	1	-0.518
42	PRPF19 (GeneID 27339)	2	-0.322
43	PRPF19 (GeneID 27339)	3	-0.487
44	PRPF19 (GeneID 27339)	4	-0.341
45	USP38 (GeneID 84640)	1	0.391
46	USP38 (GeneID 84640)	2	0.0816
47	USP38 (GeneID 84640)	3	-0.163
48	USP38 (GeneID 84640)	4	-0.522
